Where “and” joins values, the source holds several entries; their conditions need not be identical. Equal entries are not always repeated. The list shows a part of the results. The main result of the screen is listed elsewhere. These columns were measured beside it and carry no call. The list favours compounds with an active or inconclusive main result. Words in brackets tell the shape of the fitted curve; partial curves, single points and poor fits give uncertain potencies.

A short description of this assay: Cell signaling CRE-BLA (Fsk stim). To be noted: CHO CRE-bla reporter (cAMP response element driving beta-lactamase), forskolin EC10, beta-lactamase ratio; measured here: 460 nm blue channel. The procedure, abridged: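 CRE-bla CHO reporter cells treated with compound titration plus EC10 NKH 477 (water-soluble forskolin), incubated 3 h at 37 °C; CCF4 loading 2 h at room temperature, 460/530 nm emission ratio read, AC50 values derived for positive or negative modulators.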
One may read the AC50 as the midpoint of the concentration-response curve, whichever way the signal moves. With `COc1ccc(C)cc1-n1c(SCC(=O)Nc2cc(C)on2)nc2sc(C)c(C)c2c1=O`, the concentration at half-maximal activity (AC50) is 5.01 µM [rising, partial curve]. Consider `Cc1ccc(S(=O)(=O)N2CC(=O)Nc3ccccc32)cc1C`, for which the AC50 is 0.00398 µM [falling, full curve, poor fit].

Take `CC1CCc2c(C(=O)Oc3cccc(-n4cnnn4)c3)csc2C1` (stereo not drawn): the AC50 is 25.1 µM [rising, single point]. As for `O=c1cnc2cncnc2n1Cc1ccccc1Cl`, the AC50 was 5.01 µM [rising, full curve].

Regarding `COc1ccc(-c2cc(C(=O)N3CCN(c4ccccn4)CC3)c3ccccc3n2)cc1`, the half-maximal activity concentration (AC50) was 25.1 µM [falling, single point]. For the compound `Cc1nn(C(C)C(=O)O)c2ccccc12` (stereo not drawn), the half-maximal activity concentration (AC50) is 3.16 µM [falling, partial curve, poor fit]. With `Cc1ccc(C)c(N2CCN(S(=O)(=O)c3ccc4c(c3)oc(=O)n4C)CC2)c1`, the concentration at half-maximal activity (AC50) was 5.01 µM [falling, single point]. Regarding `COc1ccc(Cc2nccc3cc(OC)c(OC)cc23)cc1OC`, the AC50 is 1.26 µM [rising, full curve] and 794 nM [rising, full curve] and 126 nM [rising, full curve]. Regarding `COc1cccc(C(=O)COC(=O)C(C)N2C(=O)c3ccccc3C2=O)c1` (stereo not drawn), the AC50 was 1 µM [falling, partial curve].

Turning to `COCCOC(=O)c1c(NC(=O)CN2CCOCC2)sc(C(N)=O)c1C`, the half-maximal activity concentration (AC50) was 0.1 µM [falling, full curve, poor fit]. `COc1ccc(NS(=O)(=O)c2ccc(NS(=O)(=O)c3ccc(C)cc3)cc2)nn1`: the half-maximal activity concentration (AC50) was 1 µM [rising, full curve]. Then `CCN(Cc1ccccc1)Cc1cc(OC)cc(OC)c1`, with 0.631 µM [falling, full curve, poor fit]. For the compound `CCOC(=O)c1[nH]c(COC(=O)c2ccccc2NC(=O)c2ccco2)c(C(=O)OCC)c1C`, the AC50 was 10 µM [rising, partial curve]. With `CC(=O)c1cc(C#N)c(SCC(=O)OC(C)(C)C)nc1C`, the AC50 was 12.6 µM [rising, partial curve]. With `COc1ccc2c(c1)-c1nc(NC(=O)c3ccco3)sc1CC2`, the AC50 was 15.8 µM [rising, single point].

Regarding `COc1cc(NC(=O)c2ccc(Cl)cc2)c(OC)cc1NC(=O)CN1CCOCC1`, the AC50 is 5.01 µM [rising, single point]. Then `Cn1c2c(c(=O)n(C)c1=O)C(c1ccc(Br)cc1)Nc1ccccc1O2` (stereo not drawn), with 25.1 µM [rising, single point]. With `CN(C(=O)COC(=O)c1ccccc1Nc1ccccc1)C1CCS(=O)(=O)C1` (stereo not drawn), the AC50 is 1.26 µM [falling, partial curve]. Then `COC(=O)c1ccc(C(NC(=O)OCc2ccccc2)/C(F)=C/[C@@H](C)C(=O)NCCc2c[nH]c3ccc(OC)cc23)cc1` (stereo partly drawn), with 25.1 µM [falling, single point].

In the case of `CC1CCCCC1NC(=O)C1CCN(S(=O)(=O)N2CCOCC2)CC1` (stereo not drawn), the AC50 was 2.51 µM [falling, partial curve]. Take `Cc1ccc(NS(=O)(=O)c2cccc(C(=O)OCC(=O)NCc3ccco3)c2)cc1`: the AC50 is 1.26 µM [falling, partial curve].

For `COC(=O)c1ccc(-c2cc(C(=O)O)c3cc4c(cc3n2)OCCO4)cc1`, the AC50 was 12.6 µM [rising, single point]. Regarding `Nc1ccc2[nH]cc(CCC(=O)O)c2c1`, the half-maximal activity concentration (AC50) is 0.501 µM [rising, single point]. Take `CCOC(=O)c1ccc(NS(=O)(=O)c2cc(C)ccc2OC)cc1`: the AC50 was 5.01 µM [falling, single point]. For `CCCn1c(C)nc2c(N(CCOC)CCOC)nc(C)nc21`, the AC50 was 10 µM [rising, partial curve]. Take `O=C(NCCc1cn2ccccc2n1)c1ccc(Br)o1`: the AC50 was 10 µM [rising, partial curve].

As to `COc1cccc(Nc2ncc3nc(-c4ccccc4)c(=O)n(C4CC4)c3n2)c1`, the AC50 is 3.16 µM [rising, full curve]. For `Nc1nc(SCc2ccccn2)c2ncn(C3CCCC3)c2n1`, the AC50 is 0.501 µM [rising, single point]. Turning to `CCC(C)NC(=O)C1CCN(S(=O)(=O)N2CCCC2)CC1` (stereo not drawn), the AC50 is 15.8 µM [rising, partial curve]. Regarding `CCNc1nc(SCCOc2ccccc2)nc(N(C)C)n1`, the concentration at half-maximal activity (AC50) is 3.16 µM [rising, full curve]. For `CCOC(=O)c1cnc2sc3c(n2c1=O)CCCC3`, the concentration at half-maximal activity (AC50) is 10 µM [rising, partial curve]. For the compound `CCOC(=O)C1=C(CSc2nc(C)ccc2C#N)OC(N)=C(C#N)C1c1cccc(OC)c1OC` (stereo not drawn), the AC50 is 25.1 µM [rising, single point]. On to `O=c1c2cnn(-c3ccccc3)c2ncn1/N=C/c1ccncc1`, for which the concentration at half-maximal activity (AC50) was 0.631 µM [falling, full curve, poor fit]. As for `COc1ccc(Nc2nc3ccccc3nc2C)cc1`, the AC50 is 12.6 µM [rising, partial curve]. Then `O=C(Nc1ccccn1)c1ccc2ccccc2n1`, with 3.98 µM [falling, partial curve]; and `O=C(NCc1cccs1)C1CCN(S(=O)(=O)c2ccc3c(c2)OCCO3)CC1`, with 25.1 µM [falling, single point]. As to `N#CCSc1nc2c(cc1C#N)CCCC2`, the half-maximal activity concentration (AC50) was 12.6 µM [rising, partial curve]. With `Cn1c(=O)c2cnc(N3CCOCC3)nc2n(C)c1=O`, the half-maximal activity concentration (AC50) was 3.98 µM [falling, partial curve]. As for `Cc1ccc(C2C=C(c3ccc4c(c3)OCO4)Nc3ncnn32)cc1` (stereo not drawn), the AC50 was 25.1 µM [rising, partial curve]. For `Cc1nc2cnc(Nc3ccccc3)nc2n(Cc2ccc(F)cc2)c1=O`, the AC50 was 12.6 µM [rising, partial curve]. In the case of `CCCCCCNC(=O)C(C#N)c1nc2ccccc2nc1N1CCOCC1` (stereo not drawn), the AC50 was 5.01 µM [rising, partial curve]. For the compound `CCSc1nc(=O)n(-c2ccccc2)c(C)c1C(C)=O`, the half-maximal activity concentration (AC50) is 1 µM [rising, full curve]. With `COc1ccc(C(=O)N2CCN(S(=O)(=O)c3ccccc3)CC2)c(OC)c1`, the concentration at half-maximal activity (AC50) was 12.6 µM [falling, partial curve].

(Values after PubChem BioAssay AID662 (National Center for Advancing Translational Sciences (NCATS), 2007).)
